Measurements from patent US20060111289A1, “Compositions and methods of using Alpha-fetoprotein growth inhibitory peptides” (Serometrix, LLC,, priority 2004, published 2006).
Values joined by “and” are separate entries in the source; they are usually repeats but may differ in a detail not shown here. Equal entries are not always repeated. Not every detail of the peptide structures is certain; ends, links or a residue may be inferred. Where a SMILES comes first, the peptide text is derived from it.

Columns and labels:
[1] = tested on: 6WI-1 mammary tumor cells; experiment: Mouse ascites mammary tumor assay (6WI-1 isograft); type: in vivo
Protocol: The growth suppression of the mammary ascites tumor by AFP peptides and its fragments P149a, P149b and P149c, and control peptides were determined in non-estrogen dependent assays which measured tumor cell growth and ascites accumulation of 6WI-1 mammary transplanted NYLAR/nya mice. […] Tumor cell inocula included doses of 0.3, 1.0, and 3.0×10^6 cells which produced host mortality at 12-14 days which was lethal in 100% of the animals. Following peptide dose titration studies, mice inoculated with 6WI-1 mammary cells were injected with a previously-determined optimal dose of 1.0 μg peptide per day or saline for 11 days. On day 12 following inoculation, the total accumulated ascites fluid volume and tumor cells in the peritoneal cavity of each animal were harvested and the cell count determined.
Inoculation of mice with all three cell doses led to an increase in body weight from 25 g (day 0) to approximately […] by day 12, due to the accumulation of tumor cells and ascites fluid in the intraperitoneal cavity. An average cell count in accumulated ascites fluid on day 12 was greater than 10^8 cells/ml with a total ascites volume approximating 20 mls. Tumor cell proliferation in this model has been reported to correlate with the volume of ascites fluid accumulated.
The 6WI-1 mouse mammary tumor studies involving peptide and non-peptide treatment were further compared by histopathological analysis performed on hematoxylin/eosin stained tissue sections.

[2] = tested on: 6WI-1 mammary tumor cells; experiment: 6WI-1 mammary tumor in 15-day old mouse pups (6 day assay); type: in vivo; set-up: % Inhibition Of Activity: 6WI-1 Pup Ascites: concentration or dose not given beside the values
From the text: As an alternative model of the 6WI-I mammary tumor in adult mice, an inocula of 1×10^6 tumor cells injected into 15-day old mouse pups provided a 6 day rather than a 12 day assay and replicated the same tumor growth suppression by GIP.

[3] = tested on: MCF-7 cells; experiment: Estrogen-dependent MCF-7 foci formation assay; type: cell-based, human; set-up: % Inhibition Of Activity: MCF-7 foci formation: concentration or dose not given beside the values
From the text: Mizejewski et al., “Alpha-fetoprotein derived synthetic peptides: assay of an estrogen-modifying regulatory segment” Mol Cell Endocrinol 118:15-23 (1996). The P149 peptide inhibited the formation of tumor cell foci formed as a result of the accumulation of breast cancer cells which clump together due to loss of contact inhibition.

[4] = tested on: immature mouse uterine growth; experiment: E2-activated immature mouse uterine growth assay; type: in vivo; settings: linear versus cyclic configuration; listed as linear peptide
Protocol: FIG. 3 presents exemplary data showing the growth suppressive activities of the oligomeric forms of P149, cyclic versus linear, are depicted in various in vitro and in vivo models. Biological activity was determined by three growth-dependent bioassays, namely; • Panel-A and A1) an immature rodent uterine bioassay; • Panel-B and B 1) an in vitro MCF-7 foci assay; • Panel-C and C1) an in vitro tumor cell cytostatic assessment. […] See text for details. Scrambled peptide=P327. […]

[5] = Estrogen fetotoxicity; set-up: concentration or dose not given beside the values; settings: in vivo
[6] = tested on: GI-101 cells; experiment: GI-101 human breast cancer xenograft in nude mice; type: in vivo
[7] = tested on: three human cancer cell lines (breast, prostate, or kidney); experiment: Sulforhodamine cytostatic 6-day assay, cyclic versus linear peptide; type: cell-based
Protocol: FIG. 3 presents exemplary data showing the growth suppressive activities of the oligomeric forms of P149, cyclic versus linear, are depicted in various in vitro and in vivo models. Biological activity was determined by three growth-dependent bioassays, namely; • Panel-A and A1) an immature rodent uterine bioassay; • Panel-B and B 1) an in vitro MCF-7 foci assay; • Panel-C and C1) an in vitro tumor cell cytostatic assessment. […] See text for details. Scrambled peptide=P327.
GIP is a major participant in tumor cell surface interactions. GIP is a potent suppressor of tumor proliferation in both rodent and human cell models. GIP's biological activity is dependent on its oligomeric state, specifically its trimer (linear) versus monomer (cyclic) configuration. Biological activity was determined by three growth-dependent bioassays, namely, i) an immature rodent uterine assay; ii) an in vitro MCF-7 foci assay; and iii) an in vitro cytostatic assessment. […]
The cyclic form of GIP constitutes a disulfide-bridged monomer in solution, whereas GIP in the linear configuration is known to exist as an oligomeric trimer. […] Using three different human cancer cell lines (breast, prostate, or kidney) it was readily demonstrable that the monomeric cyclic form of the peptide produced 80-90% growth inhibition over a range of 10^−5 M to 10^−7 M when the sulforhodamine cytostatic 6-day assay was employed. […]

[8] = tested on: human breast cancer cell lines; experiment: Cell culture cytostatic (sulforhodamine) assays on human breast cancer cell lines; type: cell-based
[9] = tested on: MCF-7 cells; experiment: MCF-7 cell spreading/migration on peptide-coated coverslips; type: cell-based, human; settings: 0.5 μg to approximately 10 μg/ml
[10] = tested on: human kidney tumor cell line; settings: 5×10^−4 M; linear peptides; cited from earlier work
[11] = tested on: MCF-7 cells; settings: cited from earlier work
[12] = 1 × 10^6 tumor cells I.P., daily injections for eleven days, N = 5
[13] = 6WI-1 mouse mammary ascites tumor
[14] = printed in parentheses under the P149 value, not explained
[15] = linear versus cyclic configuration

CC[C@H](C)[C@H](NC(=O)[C@H](CS)NC(=O)[C@H](CC(C)C)NC(=O)[C@H](Cc1c[nH]cn1)NC(=O)CNC(=O)[C@@H](NC(=O)[C@@H](NC(=O)[C@@H](NC(=O)[C@H](CC(=O)O)NC(=O)[C@H](C)NC(=O)[C@H](C)NC(=O)CNC(=O)[C@H](CCC(=O)O)NC(=O)CNC(=O)[C@H](CS)NC(=O)[C@H](C)NC(=O)[C@H](CC(C)C)NC(=O)[C@H](CC(C)C)NC(=O)[C@H](CCCCN)NC(=O)[C@H](CC(=O)O)NC(=O)[C@H](CCC(=O)O)NC(=O)[C@H](CO)NC(=O)[C@@H](N)CC(C)C)[C@@H](C)CC)[C@@H](C)CC)[C@@H](C)CC)C(=O)N[C@@H](CCCNC(=N)N)C(=O)N[C@@H](Cc1c[nH]cn1)C(=O)N[C@@H](CCC(=O)O)C(=O)N[C@@H](CCSC)C(=O)N[C@H](C(=O)N1CCC[C@H]1C(=O)N[C@H](C(=O)N[C@@H](CC(N)=O)C(=O)N1CCC[C@H]1C(=O)NCC(=O)N[C@H](C(=O)O)C(C)C)C(C)C)[C@@H](C)O [P149] (H-LSEDKLLACGEGAADIIIGHLCIRHEMTPVNPGV-OH)
Suppression of accumulation of cells and ascites fluid volume (anticancer activity) ([1]; 1.0 μg peptide per day for 11 days): significantly suppressed
Body weight increase ([1]; 1 μg/day for 11 days, lowest cell dose): totally suppressed body weight increase
Tumor-associated body weight gain ([1]; 1 μg/day for 11 days, two higher cell doses, p<0.05): suppressed the tumor-associated body weight gain
Metastatic histopathological findings: Abdominal Muscle [1, 12]: Minimal tumor presence
Metastatic histopathological findings: Comment [1, 12]: Overall diminished tumor
Metastatic histopathological findings: Gross Findings [1, 12]: Reduced tumor masses
Metastatic histopathological findings: Kidney [1, 12]: No infiltrate
Metastatic histopathological findings: Liver [1, 12]: No infiltrate
Metastatic histopathological findings: Pancreas [1, 12]: Minimal tumor
Metastatic histopathological findings: Retro-peritoneal mesentery and fat [1, 12]: Some tumor infiltrate;
Metastatic histopathological findings: Spleen [1, 12]: No infiltrate
Metastatic histopathological findings: Uterus + Ovary [1, 12]: Minimal tumor presence
% Inhibition Of Activity: 6WI-1 Acites Volume [1, 13]: 42%
% Inhibition Of Activity: 6WI-1 Body Weight [1, 13]: 48%
Suppression of tumor cell proliferation and ascites fluid accumulation versus vehicle control ([1]; mouse mammary isograft): 45-55%
Metastatic tumor infiltration, histopathology summary ([1]; mouse, in vivo): only minimal tumor infiltrates
% Inhibition Of Activity: 6WI-1 Pup Ascites ([2]; mouse pups): 56%
% Inhibition Of Activity: 6WI-1 Pup Ascites, value in parentheses [2, 14]: (50) %
% Inhibition Of Activity: MCF-7 foci formation [3]: 68%
Inhibition in the MCF-7 foci-assay [3, 15]: 65-70%
% Inhibition Of Activity: MCF-7 foci formation, value in parentheses [3, 14]: (20) %
Inhibition in the mouse uterine assay [4]: ~50% and 49%
% Inhibition Of Activity: Estrogen Fetotoxicty [5]: 73%
Tumor growth suppression versus sham controls after peptide withdrawal ([6]; day 105, 3 of 4 surviving animals): 40-50%
Survival after peptide depletion ([6]; pellet implant for 60 days, sacrificed after 105 days): 45 days
Inhibition in the in vitro cytostatic assay [7, 15]: not in the in vitro cytostatic assay
Concentrations at which growth inhibition was produced ([7]; three human cancer cell lines, declined rapidly thereafter): 10^−4 to 10^−5 M
Growth suppression in sulforhodamine in vitro assays ([8]; MDA-MB-231): 30-40%
Growth suppression of four of five human breast cancer cell lines ([8]; non-estrogen-supplemented cell culture media): 50-80%
Cell spreading on peptide-coated surfaces [9]: inhibited cell spreading
Growth inhibition of human kidney tumor cell line [10]: ~80%
Peak inhibitory doses, estrogen-induced foci suppression [11]: 10^−10 to 10^−12 M
